Patent US20250283871A1, “COMPOSITIONS AND METHODS FOR MODULATING THE INTERACTION BETWEEN SS18-SSX FUSION ONCOPROTEIN AND NUCLEOSOMES” (Dana-Farber Cancer Institute, Inc., priority 2020, published 2025)

B1: TIMM22 (protein, UniProt Q9Y584 1-194, looked up)
Mitochondrial import inner …: MAAAAPNAGGSAPETAGSAEAPLQYSLLLQYLVGDKRQPRLLEPGSLGGIPSPAKSEEQKMIEKAMESCAFKAALACVGGFVLGGAFGVFTAGIDTNVGFDPKDPYRTPTAKEVLKDMGQRGMSYAKNFAIVGAMFSCTECLIESYRGTSDWKNSVISGCITGGAIGFRAGLKAGAIGCGGFAAFSAAIDYYLR
B2: YIF1A (protein, UniProt O95070 2-293, looked up)
Protein YIF1A: AYHSGYGAHGSKHRARAAPDPPPLFDDTSGGYSSQPGGYPATGADVAFSVNHLLGDPMANVAMAYGSSIASHGKDMVHKELHRFVSVSKLKYFFAVDTAYVAKKLGLLVFPYTHQNWEVQYSRDAPLPPRQDLNAPDLYIPTMAFITYVLLAGMALGIQKRFSPEVLGLCASTALVWVVMEVLALLLGLYLATVRSDLSTFHLLAYSGYKYVGMILSVLTGLLFGSDGYYVALAWTSSALMYFIVRSLRTAALGPDSMGGPVPRQRLQLYLTLGAAAFQPLIIYWLTFHLVR
B3: ATP2C1 (protein, UniProt P98194 1-919, looked up)
Calcium-transporting ATPase …: MKVARFQKIPNGENETMIPVLTSKKASELPVSEVASILQADLQNGLNKCEVSHRRAFHGWNEFDISEDEPLWKKYISQFKNPLIMLLLASAVISVLMHQFDDAVSITVAILIVVTVAFVQEYRSEKSLEELSKLVPPECHCVREGKLEHTLARDLVPGDTVCLSVGDRVPADLRLFEAVDLSIDESSLTGETTPCSKVTAPQPAATNGDLASRSNIAFMGTLVRCGKAKGVVIGTGENSEFGEVFKMMQAEEAPKTPLQKSMDLLGKQLSFYSFGIIGIIMLVGWLLGKDILEMFTISVSLAVAAIPEGLPIVVTVTLALGVMRMVKKRAIVKKLPIVETLGCCNVICSDKTGTLTKNEMTVTHIFTSDGLHAEVTGVGYNQFGEVIVDGDVVHGFYNPAVSRIVEAGCVCNDAVIRNNTLMGKPTEGALIALAMKMGLDGLQQDYIRKAEYPFSSEQKWMAVKCVHRTQQDRPEICFMKGAYEQVIKYCTTYQSKGQTLTLTQQQRDVYQQEKARMGSAGLRVLALASGPELGQLTFLGLVGIIDPPRTGVKEAVTTLIASGVSIKMITGDSQETAVAIASRLGLYSKTSQSVSGEEIDAMDVQQLSQIVPKVAVFYRASPRHKMKIIKSLQKNGSVVAMTGDGVNDAVALKAADIGVAMGQTGTDVCKEAADMILVDDDFQTIMSAIEEGKGIYNNIKNFVRFQLSTSIAALTLISLATLMNFPNPLNAMQILWINIIMDGPPAQSLGVEPVDKDVIRKPPRNWKDSILTKNLILKILVSSIIIVCGTLFVFWRELRDNVITPRDTTMTFTCFVFFDMFNALSSRSQTKSVFEIGLCSNRMFCYAVLGSIMGQLLVIYFPPLQKVFQTESLSILDLLFLLGLTSSVCIVAEIIKKVERSREKIQKHVSSTSSSFLEV
B4: TCERG1 (protein, UniProt O14776 1-1098, looked up)
Transcription elongation …: MAERGGDGGESERFNPGELRMAQQQALRFRGPAPPPNAVMRGPPPLMRPPPPFGMMRGPPPPPRPPFGRPPFDPNMPPMPPPGGIPPPMGPPHLQRPPFMPPPMSSMPPPPGMMFPPGMPPVTAPGTPALPPTEEIWVENKTPDGKVYYYNARTRESAWTKPDGVKVIQQSELTPMLAAQAQVQAQAQAQAQAQAQAQAQAQAQAQAQAQAQAQAQAQAQAQAQAQAQAQAQAQAQAQAQAQVQAQVQAQVQAQAVGASTPTTSSPAPAVSTSTSSSTPSSTTSTTTTATSVAQTVSTPTTQDQTPSSAVSVATPTVSVSTPAPTATPVQTVPQPHPQTLPPAVPHSVPQPTTAIPAFPPVMVPPFRVPLPGMPIPLPGVAMMQIVSCPYVKTVATTKTGVLPGMAPPIVPMIHPQVAIAASPATLAGATAVSEWTEYKTADGKTYYYNNRTLESTWEKPQELKEKEKLEEKIKEPIKEPSEEPLPMETEEEDPKEEPIKEIKEEPKEEEMTEEEKAAQKAKPVATAPIPGTPWCVVWTGDERVFFYNPTTRLSMWDRPDDLIGRADVDKIIQEPPHKKGMEELKKLRHPTPTMLSIQKWQFSMSAIKEEQELMEEINEDEPVKAKKRKRDDNKDIDSEKEAAMEAEIKAARERAIVPLEARMKQFKDMLLERGVSAFSTWEKELHKIVFDPRYLLLNPKERKQVFDQYVKTRAEEERREKKNKIMQAKEDFKKMMEEAKFNPRATFSEFAAKHAKDSRFKAIEKMKDREALFNEFVAAARKKEKEDSKTRGEKIKSDFFELLSNHHLDSQSRWSKVKDKVESDPRYKAVDSSSMREDLFKQYIEKIAKNLDSEKEKELERQARIEASLREREREVQKARSEQTKEIDREREQHKREEAIQNFKALLSDMVRSSDVSWSDTRRTLRKDHRWESGSLLEREEKEKLFNEHIEALTKKKREHFRQLLDETSAITLTSTWKEVKKIIKEDPRCIKFSSSDRKKQREFEEYIRDKYITAKADFRTLLKETKFITYRSKKLIQESDQHLKDVEKILQNDKRYLVLDCVPEERRKLIVAYVDDLDRRGPPPPPTASEPTRRSTK
B5: SLC5A6 (protein, UniProt Q9Y289 1-635, looked up)
Sodium-dependent multivitamin …: MSVGVSTSAPLSPTSGTSVGMSTFSIMDYVVFVLLLVLSLAIGLYHACRGWGRHTVGELLMADRKMGCLPVALSLLATFQSAVAILGVPSEIYRFGTQYWFLGCCYFLGLLIPAHIFIPVFYRLHLTSAYEYLELRFNKTVRVCGTVTFIFQMVIYMGVVLYAPSLALNAVTGFDLWLSVLALGIVCTVYTALGGLKAVIWTDVFQTLVMFLGQLAVIIVGSAKVGGLGRVWAVASQHGRISGFELDPDPFVRHTFWTLAFGGVFMMLSLYGVNQAQVQRYLSSRTEKAAVLSCYAVFPFQQVSLCVGCLIGLVMFAYYQEYPMSIQQAQAAPDQFVLYFVMDLLKGLPGLPGLFIACLFSGSLSTISSAFNSLATVTMEDLIRPWFPEFSEARAIMLSRGLAFGYGLLCLGMAYISSQMGPVLQAAISIFGMVGGPLLGLFCLGMFFPCANPPGAVVGLLAGLVMAFWIGIGSIVTSMGSSMPPSPSNGSSFSLPTNLTVATVTTLMPLTTFSKPTGLQRFYSLSYLWYSAHNSTTVIVVGLIVSLLTGRMRGRSLNPATIYPVLPKLLSLLPLSCQKRLHCRSYGQDHLDTGLFPEKPRNGVLGDSRDKEAMALDGTAYQGSSSTCILQETSL
B6: ACAD8 (protein, UniProt Q9UKU7 23-415, looked up)
Isobutyryl-CoA dehydrogenase, …: LVQTGHRSLTSCIDPSMGLNEEQKEFQKVAFDFAAREMAPNMAEWDQKELFPVDVMRKAAQLGFGGVYIQTDVGGSGLSRLDTSVIFEALATGCTSTTAYISIHNMCAWMIDSFGNEEQRHKFCPPLCTMEKFASYCLTEPGSGSDAASLLTSAKKQGDHYILNGSKAFISGAGESDIYVVMCRTGGPGPKGISCIVVEKGTPGLSFGKKEKKVGWNSQPTRAVIFEDCAVPVANRIGSEGQGFLIAVRGLNGGRINIASCSLGAAHASVILTRDHLNVRKQFGEPLASNQYLQFTLADMATRLVAARLMVRNAAVALQEERKDAVALCSMAKLFATDECFAICNQALQMHGGYGYLKDYAVQQYVRDSRVHQILEGSNEVMRILISRSLLQE

system: BAF complex subunits and histone proteins; assay: Mass spectrometry proteomics of purified HA-SS18 WT and HA-SS18-SSX1 complexes (Tables 5A-5E); parameters: species or system human; settings: HA-SS18SSX1_NE_peptides: protein co-purified with HA-SS18-SSX1 BAF complexes from soluble nuclear extract (NE), HEK-293T cells

Molecule	Total (peptides)	Unique (peptides)
B1	1	1
B2	1	1
B3	1	1
B4	1	1
B5	1	1
B6	1	1

same assay, conditions: HA-SS18WT_NE_peptides: proteins co-purified with HA-SS18 WT from nuclear extract (NE), HEK-293T

Molecule	Total (peptides)	Unique (peptides)
B1	1	1
B2	1	1
B4	1	1
